Numbered stars: 1 amine (or outer) side, 2 acyl side, 3 side chain; on linkers, the order of the positions; unused ones are H or OH. Bridge positions count the residues as written; N and C are the ends. Square brackets hold non-standard residues; d marks the D form. * marks the point of attachment. NH(CH2)8CO = O=C(CCCCCCCCN[*:1])[*:2]; Suc = O=C(CCC(=O)[*:2])[*:1]; Isobutyryl = CC(C)C(=O)*; Dab = NCC[C@H](N)C(=O)O; GABA = NCCCC(=O)O
Key:
peptide synthesis = conditions: whole synthesis
[1] = general procedure: Fmoc solid-phase peptide synthesis; Rink Amide MBHA resin (0.58 mmol/g or 0.78 mmol/g); Wang resin for C-terminal acids; DIC/HOBt; conditions: whole synthesis, analytical HPLC, scale of the general procedure 0.090 mmol

H-[dC][dQ][dI][dW][dK][dQ][dK][dP][dD][dL][dC][GABA]-OH (disulfide 1-11; SMILES CC[C@@H](C)[C@H]1NC(=O)[C@@H](CCC(N)=O)NC(=O)[C@H](N)CSSC[C@H](C(=O)NCCCC(=O)O)NC(=O)[C@@H](CC(C)C)NC(=O)[C@@H](CC(=O)O)NC(=O)[C@H]2CCCN2C(=O)[C@@H](CCCCN)NC(=O)[C@@H](CCC(N)=O)NC(=O)[C@@H](CCCCN)NC(=O)[C@@H](Cc2c[nH]c3ccccc23)NC1=O)
purity (crude or final not stated) (peptide synthesis): 98%

[GABA]KWIQD-NH2 (lactam N-6; SMILES CC[C@H](C)[C@@H]1NC(=O)[C@H](Cc2c[nH]c3ccccc23)NC(=O)[C@H](CCCCN)NC(=O)CCCNC(=O)C[C@@H](C(N)=O)NC(=O)[C@H](CCC(N)=O)NC1=O)
purity (crude or final not stated) (peptide synthesis): 96%

[GABA]KWIQE-NH2 (lactam N-6; SMILES CC[C@H](C)[C@@H]1NC(=O)[C@H](Cc2c[nH]c3ccccc23)NC(=O)[C@H](CCCCN)NC(=O)CCCNC(=O)CC[C@@H](C(N)=O)NC(=O)[C@H](CCC(N)=O)NC1=O)
purity (crude or final not stated) (peptide synthesis): 84%

[GABA][dQ][dI][dW][dK][dD]-NH2 (lactam N-6; SMILES CC[C@@H](C)[C@H]1NC(=O)[C@@H](CCC(N)=O)NC(=O)CCCNC(=O)C[C@H](C(N)=O)NC(=O)[C@@H](CCCCN)NC(=O)[C@@H](Cc2c[nH]c3ccccc23)NC1=O)
purity (crude or final not stated) (peptide synthesis): 98%

H-CKQKWIQC-NH2 (disulfide 1-8; SMILES CC[C@H](C)[C@@H]1NC(=O)[C@H](Cc2c[nH]c3ccccc23)NC(=O)[C@H](CCCCN)NC(=O)[C@H](CCC(N)=O)NC(=O)[C@H](CCCCN)NC(=O)[C@@H](N)CSSC[C@@H](C(N)=O)NC(=O)[C@H](CCC(N)=O)NC1=O)
purity (crude or final not stated) [1]: 98%

[NH(CH2)8CO]KWIQD-NH2 (lactam N-6; SMILES CC[C@H](C)[C@@H]1NC(=O)[C@H](Cc2c[nH]c3ccccc23)NC(=O)[C@H](CCCCN)NC(=O)CCCCCCCCNC(=O)C[C@@H](C(N)=O)NC(=O)[C@H](CCC(N)=O)NC1=O)
purity (crude or final not stated) [1]: 96.4%

KWIQK-NH2 (linker N-5 via Suc; SMILES CC[C@H](C)[C@@H]1NC(=O)[C@H](Cc2c[nH]c3ccccc23)NC(=O)[C@H](CCCCN)NC(=O)CCC(=O)NCCCC[C@@H](C(N)=O)NC(=O)[C@H](CCC(N)=O)NC1=O)
purity (crude or final not stated) [1]: 76%

Isobutyryl-EKWIQ[Dab]-NH2 (lactam 1-6; SMILES CC[C@H](C)[C@@H]1NC(=O)[C@H](Cc2c[nH]c3ccccc23)NC(=O)[C@H](CCCCN)NC(=O)[C@@H](NC(=O)C(C)C)CCC(=O)NCC[C@@H](C(N)=O)NC(=O)[C@H](CCC(N)=O)NC1=O)
purity (crude or final not stated) [1]: 65.8%
